Assay [1] deals with RNA-binding region of human RC3H2 (a.a. 87–404), as used in analytical SEC (human) (UniProt Q9HBD1). The assay is described as follows: SEC; analytical Superdex 200 10/300, protein without RNA; 20 mM Tris-HCl, pH 8.0, 150 mM NaCl, 1 mM TCEP; column calibrated with gel filtration standard; both purified.
For assay [2], the target named is RNA-binding region of human RC3H2 (a.a. 87–404), N-terminal His6-tag removed (human) (UniProt Q9HBD1). The assay is described as follows: crystal structure; RC3H2 (a.a. 87–404) with 15-nt Ier3 RNA (molar ratio 1:1.5); two protein molecules in the asymmetric unit; 17% PEG-10K, 0.1 M Bis-Tris, pH 6.5, 20 °C; both purified.
The target in assay [3] is human RC3H1 (a.a. 1–445) (human) (UniProt Q5TC82). The assay is described as follows: SAXS; protein alone in solution, concentration series extrapolated to infinite dilution; room temperature; 20 mM Tris-HCl, pH 8.0, 150 mM NaCl, 1 mM TCEP; both purified.
Assay [4] addresses RC3H1 ROQ domain (a.a. 178–328), proteolytic product of RC3H1 (a.a. 1–445) (human) (UniProt Q5TC82). The assay is described as follows: crystal structure; RC3H1 (a.a. 1–445) with elastase 1:1000 (w/w) in the drop; two copies of a.a. 178–328 in the asymmetric unit; 25% PEG-8000, 0.2 M NaCl, 0.1 M HEPES, pH 7.5, 20 °C; both purified.
Assay [5] deals with human RC3H2 (a.a. 1–442) (human) (UniProt Q9HBD1). The assay is described as follows: SAXS; protein alone in solution, concentration series extrapolated to infinite dilution; room temperature; 20 mM Tris-HCl, pH 8.0, 150 mM NaCl, 1 mM TCEP; both purified.

Results are given in words; binding and its absence hold for the method and conditions named. For some assays here: Where a sequence is shown, tags or fusion partners need not be part of it.

B1: RNA-binding region of human RC3H2 (a.a. 87–404), as used in analytical SEC (domain or fragment, UniProt Q9HBD1 87-404)
chain: SNLGENKHYEVAKKCVEDLALYLKPLSGGKGVASLNQSALSRPMQRKLVTLVNCQLVEEEGRVRAMRAARSLGERTVTELILQHQNPQQLSANLWAAVRARGCQFLGPAMQEEALKLVLLALEDGSALSRKVLVLFVVQRLEPRFPQASKTSIGHVVQLLYRASCFKVTKRDEDSSLMQLKEEFRSYEALRREHDAQIVHIAMEAGLRISPEQWSSLLYGDLAHKSHMQSIIDKLQSPESFAKSVQELTIVLQRTGDPANLNRLRPHLELLANIDPNPDAVSPTWEQLENAMVAVKTVVHGLVDFIQNYSRKGHETPQ
With B1, the binding entry in assay [1] is “no binding”.

B2: RNA-binding region of human RC3H2 (a.a. 87–404), N-terminal His6-tag removed (domain or fragment, UniProt Q9HBD1 87-404)
chain: SNLGENKHYEVAKKCVEDLALYLKPLSGGKGVASLNQSALSRPMQRKLVTLVNCQLVEEEGRVRAMRAARSLGERTVTELILQHQNPQQLSANLWAAVRARGCQFLGPAMQEEALKLVLLALEDGSALSRKVLVLFVVQRLEPRFPQASKTSIGHVVQLLYRASCFKVTKRDEDSSLMQLKEEFRSYEALRREHDAQIVHIAMEAGLRISPEQWSSLLYGDLAHKSHMQSIIDKLQSPESFAKSVQELTIVLQRTGDPANLNRLRPHLELLANIDPNPDAVSPTWEQLENAMVAVKTVVHGLVDFIQNYSRKGHETPQ
For B2, in assay [2], the binding result is “no binding”.

B3: human RC3H1 (a.a. 1–445) (domain or fragment, UniProt Q5TC82 1-445)
chain: MPVQAPQWTDFLSCPICTQTFDETIRKPISLGCGHTVCKMCLNKLHRKACPFDQTTINTDIELLPVNSALLQLVGAQVPEQQPITLCSGVEDTKHYEEAKKCVEELALYLKPLSSARGVGLNSTTQSVLSRPMQRKLVTLVHCQLVEEEGRIRAMRAARSLGERTVTELILQHQNPQQLSSNLWAAVRARGCQFLGPAMQEEALKLVLLALEDGSALSRKVLVLFVVQRLEPRFPQASKTSIGHVVQLLYRASCFKVTKRDEDSSLMQLKEEFRTYEALRREHDSQIVQIAMEAGLRIAPDQWSSLLYGDQSHKSHMQSIIDKLQTPASFAQSVQELTIALQRTGDPANLNRLRPHLELLANIDPSPDAPPPTWEQLENGLVAVRTVVHGLVDYIQNHSKKGADQQQPPQHSKYKTYMCRDMKQRGGCPRGASCTFAHSQEELEK
Consider B3, for which, in assay [3], the binding entry was “no binding (tested: 0.75, 1 and 5 mg/ml)”.

B4: RC3H1 ROQ domain (a.a. 178–328), proteolytic product of RC3H1 (a.a. 1–445) (domain or fragment, UniProt Q5TC82 178-328)
chain: QLSSNLWAAVRARGCQFLGPAMQEEALKLVLLALEDGSALSRKVLVLFVVQRLEPRFPQASKTSIGHVVQLLYRASCFKVTKRDEDSSLMQLKEEFRTYEALRREHDSQIVQIAMEAGLRIAPDQWSSLLYGDQSHKSHMQSIIDKLQTPA
Take B4: the binding result in assay [4] is on record as “no binding”.

B5: human RC3H2 (a.a. 1–442) (domain or fragment, UniProt Q9HBD1 1-442)
chain: MPVQAAQWTEFLSCPICYNEFDENVHKPISLGCSHTVCKTCLNKLHRKACPFDQTAINTDIDVLPVNFALLQLVGAQVPDHQSIKLSNLGENKHYEVAKKCVEDLALYLKPLSGGKGVASLNQSALSRPMQRKLVTLVNCQLVEEEGRVRAMRAARSLGERTVTELILQHQNPQQLSANLWAAVRARGCQFLGPAMQEEALKLVLLALEDGSALSRKVLVLFVVQRLEPRFPQASKTSIGHVVQLLYRASCFKVTKRDEDSSLMQLKEEFRSYEALRREHDAQIVHIAMEAGLRISPEQWSSLLYGDLAHKSHMQSIIDKLQSPESFAKSVQELTIVLQRTGDPANLNRLRPHLELLANIDPNPDAVSPTWEQLENAMVAVKTVVHGLVDFIQNYSRKGHETPQPQPNSKYKTSMCRDLRQQGGCPRGTNCTFAHSQEELEK
On to B5, for which the binding entry in assay [5] is “no binding (tested: 1, 3, 5 and 10 mg/ml)”.

Values taken from PMC4614863, “New Insights into the RNA-Binding and E3 Ubiquitin Ligase Activities of Roquins”.
